From patent publication US20030206886A1 (UNIVERSITY OF MEDICINE AND DENTISTRY OF NEW JERSEY, published 2003)
No constants are given. Whether binding was seen depends on the method and setting. Some entries that bind do so weakly or less than the wild type. For some assays here: Tags and fused reporters may be left off the sequences shown.

Protein sequences, listed by entry. Tags and fused reporters are not part of them. Residues count along the entry.
UniProt P22301, residues 19-178: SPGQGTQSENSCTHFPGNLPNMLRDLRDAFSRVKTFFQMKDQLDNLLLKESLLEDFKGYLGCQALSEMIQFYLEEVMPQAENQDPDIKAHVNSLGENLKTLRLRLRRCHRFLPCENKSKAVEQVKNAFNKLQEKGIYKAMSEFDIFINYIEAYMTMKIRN

Key:
human IL-10 (human) [1] = target: human IL-10 (human) (UniProt P22301); test: Ba8.1 proliferation assay FIG. 6; ELISA inhibition FIG. 7 ('specifically interferes with IL-10 activity in ELISA')
human IL-10 (human) [2] = target: human IL-10 (human) (UniProt P22301); test: ELISA inhibition, supernatant pre-incubated with 250 pg cytokine, FIG. 7
human IL-10 (human) [3] = target: human IL-10 (human) (UniProt P22301); test: ELISA inhibition with concentrated supernatant, FIG. 7
human IL-10 (human) [4] = target: human IL-10 (human) (UniProt P22301); test: pre-incubation with hIL-10 before Ba8.1 proliferation assay, FIG. 6
human IL-10 (human) [5] = target: human IL-10 (human) (UniProt P22301); test: bead depletion assay (Ni-NTA-Agarose), filtrate assayed by ELISA
human IL-10 (human) [6] = target: human IL-10 (human) (UniProt P22301); test: bead depletion assay, FIG. 2 (also FIG. 1 bottom: 'bind human IL-10')
human IL-10 (human) [7] = target: human IL-10 (human) (UniProt P22301); test: Ba8.1 proliferation assay after pre-incubation, FIG. 1 bottom
human IL-10 (human) [8] = target: human IL-10 (human) (UniProt P22301); test: bead depletion assay (Ni-NTA agarose), unbound hIL-10 by ELISA, FIG. 2

| binding (human IL-10 (human) [1]) | binding (human IL-10 (human) [2]) | binding (human IL-10 (human) [3]) | binding (human IL-10 (human) [4]) | binding (human IL-10 (human) [5]) | binding (human IL-10 (human) [6]) | binding (human IL-10 (human) [7]) | binding (human IL-10 (human) [8]) | Molecule |
| --- | --- | --- | --- | --- | --- | --- | --- | --- |
| binds | binds | binds | binds |  |  |  |  | human IL-10 receptor IgA immunoadhesin (from UniProt Q13651 22-235; P01876 103-353) (Fc fusion) |
|  |  |  |  | binds | binds | binds | binds | human IL-10 receptor extracellular domain (human IL-10R-6xHis) (receptor) HGTELPSPPSVWFEAEFFHHILHWTPIPNQSESTCYEVALLRYGIESWNSISNCSQTLSYDLTAVTLDLYHSNGYRARVRAVDGSRHSNWTVTNTRFSVDEVTLTVGSVNLEIHNGFILGKIQLPRPKMAPANDTYESIFSHFREYEIAIRKVPGNFTFTHKKVKHENFSLLTSGEVGEFCVQVKPSVASRSNKGMWSKEECISLTRQYFTVTNHHHHHH |
